From PubChem BioAssay record AID1347044 (NCATS, 2019).

By UniProt entry, the sequences of proteins in these tests, tags left out.
UniProt P16066, whole entry, target on record: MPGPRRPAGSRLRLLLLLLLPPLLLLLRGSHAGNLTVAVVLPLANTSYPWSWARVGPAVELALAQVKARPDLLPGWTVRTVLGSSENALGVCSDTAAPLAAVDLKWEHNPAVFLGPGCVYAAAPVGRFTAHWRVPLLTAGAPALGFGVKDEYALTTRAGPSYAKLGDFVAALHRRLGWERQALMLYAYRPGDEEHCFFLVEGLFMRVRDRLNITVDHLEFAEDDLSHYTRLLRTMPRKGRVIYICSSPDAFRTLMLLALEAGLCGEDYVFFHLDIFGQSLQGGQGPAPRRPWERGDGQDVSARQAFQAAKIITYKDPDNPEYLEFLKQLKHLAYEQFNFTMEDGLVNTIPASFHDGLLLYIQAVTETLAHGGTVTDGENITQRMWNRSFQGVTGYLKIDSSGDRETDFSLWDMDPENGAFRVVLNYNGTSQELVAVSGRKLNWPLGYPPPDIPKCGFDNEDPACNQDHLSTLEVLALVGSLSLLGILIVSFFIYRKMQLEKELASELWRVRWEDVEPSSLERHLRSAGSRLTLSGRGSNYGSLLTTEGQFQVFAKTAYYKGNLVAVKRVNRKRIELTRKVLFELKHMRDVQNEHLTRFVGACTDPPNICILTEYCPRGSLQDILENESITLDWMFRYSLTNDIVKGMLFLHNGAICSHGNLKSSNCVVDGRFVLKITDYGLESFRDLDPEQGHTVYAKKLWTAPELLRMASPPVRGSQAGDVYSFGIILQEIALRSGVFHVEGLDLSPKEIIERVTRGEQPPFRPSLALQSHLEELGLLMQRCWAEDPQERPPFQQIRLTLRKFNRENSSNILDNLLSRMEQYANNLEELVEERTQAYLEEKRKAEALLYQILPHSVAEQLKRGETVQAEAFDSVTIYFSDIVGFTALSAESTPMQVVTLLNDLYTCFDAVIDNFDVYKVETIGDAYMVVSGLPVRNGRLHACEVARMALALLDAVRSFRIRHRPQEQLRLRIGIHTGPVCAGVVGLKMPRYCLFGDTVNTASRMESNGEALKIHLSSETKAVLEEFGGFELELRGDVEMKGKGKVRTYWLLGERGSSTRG

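HEK293 cells carrying human Npr1 and a cGMP luciferase sensor, given ANP peptide after a 30-minute compound pre-treatment; light output read 20 minutes after stimulation.
Each compound was run as an 11-point, three-fold dilution series, mostly topping out near 57.6 µM.
The number is the fitted half-maximal inhibitory potency, so a lower value means a stronger antagonist.
Calls follow the dose-curve class and an activity score (actives score 40 to 100, inactives 0); the cut-off for inconclusive is not spelled out.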

Values are in µM.
All entries here are filed as inconclusive.
These entries are mostly ones the record files as inconclusive; other results of the assay are not listed here.
Potencies fitted to partial, single-point or poorly fitting curves are rough.
Activity scores are not listed here.

- O=C(CCC1CCN(C(=O)c2ccccc2F)CC1)Nc1cccc(Cl)c1 | potency 21.66 µM (inhibitor, partial curve)
- COc1ccc(C(CC(=O)N(C)Cc2cc(C3CC3)n[nH]2)c2ccccc2)cc1 (configuration not stated) | potency 43.23 µM (inhibitor, single point)
- Fc1ccc(CNC[C@H]2Cn3c(-c4ccc5c(c4)OCCO5)cnc3CO2)cc1 | potency 35.26 µM (inhibitor, partial curve)
- O=C1Nc2ccccc2CN(Cc2ccccc2)C12CCNCC2 | potency 19.31 µM (inhibitor, partial curve)
- Cc1nn2c(c1-c1ccnn1C(C)C)N(CC1CCOCC1)CCC2 | potency 12.51 µM (inhibitor, partial curve)
- Cc1cccc(C(=O)N2CCC3(CC2)CC(N(Cc2ccc(F)cc2)C2CC2)CCO3)c1 (configuration not stated) | potency 21.66 µM (inhibitor, partial curve)
- CC1(CCCCc2ccccc2)COc2ccc(C(=O)N3CC[S+](=O)([O-])CC3)cc2N1 (configuration not stated) | potency 24.31 µM (inhibitor, partial curve)
- O=C(N1CCN(c2cc(-c3ccc(Cl)cc3)[nH]n2)CC1)C1(c2ccccc2)CC1 | potency 43.23 µM (inhibitor, single point)
- Cc1cccc(-c2cccc(CN)c2)c1 | potency 44.38 µM (inhibitor, single point)
- CCC(CC)c1cc([C@H]2CN3CC[C@H]2C[C@@H]3CNS(=O)(=O)c2ccccc2C#N)nc(-c2ccncc2)n1 | potency 17.21 µM (inhibitor, partial curve)
- CCC(CC)c1cc([C@H]2CN3CC[C@H]2C[C@@H]3CNS(=O)(=O)Cc2ccccc2)nc(-c2ccncc2)n1 | potency 30.6 µM (inhibitor, single point)
- Cc1ccc(C)c(C(=O)N2CCC3(CC2)N=C(c2ccc(Cl)cc2)NO3)c1 | potency 24.31 µM (inhibitor, partial curve)
- COC(=O)C1=C(C)N=C2SC=C(CC(=O)NCCC(C)C)N2C1c1ccccc1Cl (configuration not stated) | potency 27.27 µM (inhibitor, partial curve, poor fit)
- CN(C)CCNC(=O)C(C)(C)Oc1nn(Cc2cccc(Cl)c2)c2ccccc12 | potency 31.42 µM (inhibitor, partial curve)
- COc1ccc(C(=O)N2CCC(n3cc(-c4nc(C(C)C)no4)nn3)CC2)cc1F | potency 27.27 µM (inhibitor, single point)
- CC1=NS(=O)(=O)N(C)C=C1C(=O)OCc1noc(-c2ccco2)n1 | potency 38.52 µM (inhibitor, single point)
- CC(=O)N1CCC(NC[C@H]2O[C@H](Cc3cc(-c4cccc(O)c4)on3)CC[C@@H]2O)CC1 | potency 35.26 µM (inhibitor, partial curve)
- COc1cccc(C2Cn3nnc(-c4nc(-c5ccccc5)no4)c3CO2)c1 (configuration not stated) | potency 21.66 µM (inhibitor, partial curve)
- O=C(c1cccc(F)c1)N1CCOC[C@H](Oc2ccc(C(F)(F)F)cc2)C1 | potency 49.8 µM (inhibitor, single point)

Repeated from the top, 2 entries:

{"compound": "O=C(CCC1CCN(C(=O)c2ccccc2F)CC1)Nc1cccc(Cl)c1", "potency (µM)": "21.66", "curve": "inhibitor, partial curve"}
{"compound": "COc1ccc(C(CC(=O)N(C)Cc2cc(C3CC3)n[nH]2)c2ccccc2)cc1", "stereo": "configuration not stated", "potency (µM)": "43.23", "curve": "inhibitor, single point"}